From the supplement of paper PMC5407854, “Inhibitor of ppGalNAc-T3-mediated O-glycosylation blocks cancer cell invasiveness and lowers FGF23 levels” (eLife, 2017)
Whole data set: some 1,700 compounds, median “T2 sensor activation Q score (MG/GFP ratio z-score vs DMSO controls)” near 0.3, cut for the highest 2% near 1.9. The list shows a part of the results.

Each compound was assayed on ppGalNAc-T2 sensor (assay: T2 sensor activation Q score (MG/GFP ratio z-score vs DMSO controls) (SD units); higher = more sensor activation (inhibition of ppGalNAc-T2 glycosylation)). Conditions: HEK293 sensor cells; 10 µM; 6 h.
Method: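 Cells were treated with compound at 10 uM for 6 h, then MG/GFP ratio was read by flow cytometry (10,000 cells per well, duplicate wells). Q = (R - R_neg)/SD_neg relative to DMSO vehicle controls; the signal rises when the glycosyltransferase is inhibited.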
In the case of `COc1cc(NC(=O)CCl)ccc(=O)c1`, the “T2 sensor activation Q score” value is reported as 0.6. In the case of `Cc1[nH]c(=S)[nH]c(=O)c1Cc1c(O)ccc2ccccc12`, the “T2 sensor activation Q score” value is reported as -0.3. With `CC(=O)Oc1ccc(OC(C)=O)c2c1CC1(C)OC1(C)C2` (stereo not drawn) the “T2 sensor activation Q score” value was 0.5. In the case of `NC(=O)N/N=C1\CC2CC1C1C=CCC21` (stereo not drawn), the “T2 sensor activation Q score” value is reported as 1.05. `CCN1CCCCC(=NO)C(=NO)CCCC1` was tested, and the “T2 sensor activation Q score” value was 1.05. `NC(N)=N/N=C\c1c(Cl)cccc1Cl` was tested, and the “T2 sensor activation Q score” value was 0.25. `O=C(O)c1ccccc1-c1ccccc1C(=O)Nc1ccc2c(c1)[nH]c(=O)c1ccccc12` was tested, and the “T2 sensor activation Q score” value was -0.35. `CC(C)C[C@H](NC(=O)[C@H](CCc1ccccc1)NC(=O)CN1CCOCC1)C(=O)N[C@@H](Cc1ccccc1)C(=O)N[C@@H](CC(C)C)C(=O)[C@@]1(C)CO1` was tested, and the “T2 sensor activation Q score” value was -1.65. With `c1ccc(-c2nc(-c3nccc4ccccc34)oc2-c2ccccc2)cc1` the “T2 sensor activation Q score” value was 1.4. With `CCOC(=O)C(=O)C1C(=O)Nc2ccccc21` (stereo not drawn) the “T2 sensor activation Q score” value was 1.15. For `O=C(OCC(O)COC(=O)c1cccnc1)c1cccnc1`, the “T2 sensor activation Q score” value was 1.3. With `O=[N+]([O-])c1cccc(-c2nc3ccccc3s/c2=N/O)c1` the “T2 sensor activation Q score” value was 1.25. For `O=C(O)c1c[nH]n2c(=S)ncnc12`, the “T2 sensor activation Q score” value was -0.95. For `Cc1ccc(NC(=S)NC(=O)c2ccccc2)cc1NC(=S)NC(=O)c1ccccc1`, the “T2 sensor activation Q score” value was 0.6. With `Nc1ccc(Oc2ccc(N)c([N+](=O)[O-])c2)cc1[N+](=O)[O-]` the “T2 sensor activation Q score” value was -0.3. In the case of `O=[N+]([O-])c1ccccc1/C=C/C=N/N=C/c1ccccc1O`, the “T2 sensor activation Q score” value is reported as 0.95. `O=C(O)C(Cc1ccccc1N(CCO)CCO)N1C(=O)c2ccccc2C1=O` (stereo not drawn) was tested, and the “T2 sensor activation Q score” value was 0.25. In the case of `Cc1nc(N)nc(Nc2ccc(C#N)cc2)c1Br`, the “T2 sensor activation Q score” value is reported as 2.35. For `CSc1ccc(NC(=O)Nc2cc(C)ccn2)cc1`, the “T2 sensor activation Q score” value was -0.2. `CCCCN1C(=O)CC(C(=O)OCC)=C1C` was tested, and the “T2 sensor activation Q score” value was -0.2. For `CCN(CC)Cc1cc2[nH]c3c4ccc(Cl)cc4ncc3c2cc1OC`, the “T2 sensor activation Q score” value was -2.1. With `O=C1c2ccccc2C(=O)N1c1ncn[nH]1` the “T2 sensor activation Q score” value was 1.9. For `CN(C)S(=O)(=O)N1C(=O)c2ccccc2C1=O`, the “T2 sensor activation Q score” value was 1.25. For `Nc1ccc(N=Nc2ccccc2)c2ccccc12`, the “T2 sensor activation Q score” value was -0.25. With `O=C(c1cccnc1)C1Cc2ccccc2C1=O` (stereo not drawn) the “T2 sensor activation Q score” value was 1.8. With `COc1ccc(NC2=CC(=S)NC(C)(C)C2)cc1` the “T2 sensor activation Q score” value was -0.7. In the case of `Cc1cc(=O)c2cc(C(=O)c3ccccc3)ccc2[nH]1`, the “T2 sensor activation Q score” value is reported as 1.05. For `O=C(Nc1ccc(Nc2ccncc2)cc1)c1ccc([N+](=O)[O-])cc1`, the “T2 sensor activation Q score” value was 0.45. With `CCOC(=O)Nc1csnn1` the “T2 sensor activation Q score” value was -1. In the case of `Cc1cc(NC(=O)Nc2cccc3ccccc23)no1`, the “T2 sensor activation Q score” value is reported as 1.05. For `Cn1c(=O)c2c(nc(N3CCOCC3)n2C)n(C)c1=O`, the “T2 sensor activation Q score” value was -0.1. With `Cc1nc(SCC(=O)O)n[nH]1` the “T2 sensor activation Q score” value was -1.55. `CCN(CC)CCNC(=O)c1ccc(NCN2C(=O)NC(c3ccccc3)(c3ccccc3)C2=O)cc1` was tested, and the “T2 sensor activation Q score” value was 0.8.
